From PMC11597407
Results are given in words; binding and its absence hold for the method and conditions named. Some binding calls cover weakened binding; strength is not graded here.

Chains of the proteins cited; added tags and fusions are not shown. Lines headed by an entry give the natural chain unless they say otherwise; changes in a name come on top. Residues count along the entry.
UniProt P26039, residues 209-400: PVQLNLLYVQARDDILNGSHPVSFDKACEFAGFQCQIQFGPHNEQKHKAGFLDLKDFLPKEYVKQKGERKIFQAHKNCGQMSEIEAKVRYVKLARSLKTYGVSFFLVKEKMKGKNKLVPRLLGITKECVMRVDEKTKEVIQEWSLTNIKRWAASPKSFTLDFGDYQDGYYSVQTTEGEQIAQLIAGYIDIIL

Target: talin (209-400), the talin1 F2F3 part of the APP-talin chimera (UniProt P26039)
Experiment: crystal structure; APP(754-764)-talin(209-400) chimera, hanging drop, 0.1 M tris pH 8.5, 10% ethanol, 18 C; P212121, one copy in the asymmetric unit; the APP tail binds F3 of a symmetry-related molecule; both purified

binding: binds
Binder: QNGYENPTYKF (domain or fragment) [APP (754-764), the APP part of the APP-talin chimera]
